Two substances from PMC9470561 can be followed below.

Sequences of proteins named here, by UniProt entry; tags and fusion partners are left off.
UniProt Q6PCB7: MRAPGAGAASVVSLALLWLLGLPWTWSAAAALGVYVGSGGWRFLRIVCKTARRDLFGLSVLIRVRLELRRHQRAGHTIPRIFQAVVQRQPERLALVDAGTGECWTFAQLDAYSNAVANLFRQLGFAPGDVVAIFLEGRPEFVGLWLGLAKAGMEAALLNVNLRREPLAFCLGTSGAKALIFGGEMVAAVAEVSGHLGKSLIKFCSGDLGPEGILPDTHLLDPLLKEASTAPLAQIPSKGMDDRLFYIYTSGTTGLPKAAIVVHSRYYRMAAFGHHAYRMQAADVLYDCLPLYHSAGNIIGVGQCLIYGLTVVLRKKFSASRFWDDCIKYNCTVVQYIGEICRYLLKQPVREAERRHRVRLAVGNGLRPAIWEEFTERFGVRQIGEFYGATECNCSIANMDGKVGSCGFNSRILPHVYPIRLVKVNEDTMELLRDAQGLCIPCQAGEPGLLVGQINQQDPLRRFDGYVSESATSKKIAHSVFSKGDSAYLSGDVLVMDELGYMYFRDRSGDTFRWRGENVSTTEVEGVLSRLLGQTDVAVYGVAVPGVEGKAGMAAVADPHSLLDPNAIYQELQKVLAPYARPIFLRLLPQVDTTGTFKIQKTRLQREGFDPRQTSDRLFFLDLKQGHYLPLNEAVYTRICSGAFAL

The target in one test is T1, alpha-tag-CD37 (human) (UniProt P11049).
T1 sequence: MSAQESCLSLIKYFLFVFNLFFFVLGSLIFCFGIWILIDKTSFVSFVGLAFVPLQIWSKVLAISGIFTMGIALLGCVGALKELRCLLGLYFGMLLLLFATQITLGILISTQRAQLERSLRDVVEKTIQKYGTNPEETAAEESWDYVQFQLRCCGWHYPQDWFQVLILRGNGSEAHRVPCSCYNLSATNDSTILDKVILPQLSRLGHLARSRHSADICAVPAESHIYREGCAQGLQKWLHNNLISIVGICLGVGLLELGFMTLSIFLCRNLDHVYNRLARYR
The test can be described thus: co-IP; CD37KO BJAB cells co-transfected with FLAG-FATP1 and alpha-tag-CD37; lysis in 1% Brij 97, 25 mM Tris-HCl pH 7.5, 150 mM NaCl, 2 mM EDTA, 4 °C; pulldown of alpha-tagged CD37 on Alpha Selector beads; blot with anti-FLAG.

Test [1] concerns the target T2, tetraspanin CD37 (human (endogenous in BJAB)) (UniProt P11049).
T2 sequence: T1 sequence
In words: proximity ligation; in situ PLA with FATP1 and CD37 antibodies on fixed WT BJAB lymphoma cells; isotype controls and CD37KO BJAB cells as negative controls.

No constants are given. Whether binding was seen depends on the method and setting. Binding seen in cells or lysates may run through a third protein. Some binding calls cover weakened binding; strength is not graded here. For some assays here: Sequences can lack the tags named with a protein.

As for FLAG-FATP1 (from UniProt Q6PCB7 1-646), the binding entry with alpha-tag-CD37 (human) is given as “binds”. As for “fatty acid transporter protein 1 (FATP1) (from UniProt Q6PCB7 1-646)”, the binding result in test [1] was “binds”.
